Test results reported in the supplement of paper PMC12823440, “Inhibitors supercharge kinase turnover through native proteolytic circuits” (Nature, 2025).
Structures can show the parent of a compound that is named as a salt. This is one part of the list. Hit calls seldom repeat between salt and free forms of one compound.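 In K562 cells expressing nanoluciferase-fused kinases, luminescence was recorded at 4 h intervals between 2 and 18 h, normalized as percent of control with DMSO at 100% and a positive control at 0%. A significant (2 sigma) signal drop marks a time point as decreased. The authors' rule for a hit is not shown and takes in more than the number of time points.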

Protein sequences, listed by entry. Tags and fused reporters are not part of them. Lines headed by an entry give the natural chain unless they say otherwise; changes in a name come on top.
UniProt O75460: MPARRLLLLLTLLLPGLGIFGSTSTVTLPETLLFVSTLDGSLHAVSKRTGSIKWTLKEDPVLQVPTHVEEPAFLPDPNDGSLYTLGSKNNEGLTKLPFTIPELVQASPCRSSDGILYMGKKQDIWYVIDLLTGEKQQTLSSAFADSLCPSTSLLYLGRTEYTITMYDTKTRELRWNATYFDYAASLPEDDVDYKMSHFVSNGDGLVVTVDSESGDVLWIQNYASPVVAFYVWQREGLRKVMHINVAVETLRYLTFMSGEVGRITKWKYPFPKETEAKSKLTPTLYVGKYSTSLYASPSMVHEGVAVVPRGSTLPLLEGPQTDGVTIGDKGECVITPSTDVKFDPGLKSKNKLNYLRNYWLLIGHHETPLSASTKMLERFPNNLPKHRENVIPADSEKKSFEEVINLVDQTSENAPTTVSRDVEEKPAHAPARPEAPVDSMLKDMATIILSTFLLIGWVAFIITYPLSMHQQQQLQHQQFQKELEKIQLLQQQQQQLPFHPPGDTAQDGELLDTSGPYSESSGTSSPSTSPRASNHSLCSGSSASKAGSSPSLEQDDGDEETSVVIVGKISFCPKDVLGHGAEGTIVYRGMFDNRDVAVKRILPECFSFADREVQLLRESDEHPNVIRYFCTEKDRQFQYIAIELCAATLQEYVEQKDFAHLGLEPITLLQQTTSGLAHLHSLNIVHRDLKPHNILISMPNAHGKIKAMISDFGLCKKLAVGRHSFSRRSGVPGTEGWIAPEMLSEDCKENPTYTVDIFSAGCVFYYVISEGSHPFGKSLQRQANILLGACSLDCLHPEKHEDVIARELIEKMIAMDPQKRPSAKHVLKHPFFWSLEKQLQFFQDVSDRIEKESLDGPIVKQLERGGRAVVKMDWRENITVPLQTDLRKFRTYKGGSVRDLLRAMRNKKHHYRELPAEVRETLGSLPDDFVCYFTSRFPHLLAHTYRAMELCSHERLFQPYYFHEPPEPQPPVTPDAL
UniProt P11362, whole entry, looked up: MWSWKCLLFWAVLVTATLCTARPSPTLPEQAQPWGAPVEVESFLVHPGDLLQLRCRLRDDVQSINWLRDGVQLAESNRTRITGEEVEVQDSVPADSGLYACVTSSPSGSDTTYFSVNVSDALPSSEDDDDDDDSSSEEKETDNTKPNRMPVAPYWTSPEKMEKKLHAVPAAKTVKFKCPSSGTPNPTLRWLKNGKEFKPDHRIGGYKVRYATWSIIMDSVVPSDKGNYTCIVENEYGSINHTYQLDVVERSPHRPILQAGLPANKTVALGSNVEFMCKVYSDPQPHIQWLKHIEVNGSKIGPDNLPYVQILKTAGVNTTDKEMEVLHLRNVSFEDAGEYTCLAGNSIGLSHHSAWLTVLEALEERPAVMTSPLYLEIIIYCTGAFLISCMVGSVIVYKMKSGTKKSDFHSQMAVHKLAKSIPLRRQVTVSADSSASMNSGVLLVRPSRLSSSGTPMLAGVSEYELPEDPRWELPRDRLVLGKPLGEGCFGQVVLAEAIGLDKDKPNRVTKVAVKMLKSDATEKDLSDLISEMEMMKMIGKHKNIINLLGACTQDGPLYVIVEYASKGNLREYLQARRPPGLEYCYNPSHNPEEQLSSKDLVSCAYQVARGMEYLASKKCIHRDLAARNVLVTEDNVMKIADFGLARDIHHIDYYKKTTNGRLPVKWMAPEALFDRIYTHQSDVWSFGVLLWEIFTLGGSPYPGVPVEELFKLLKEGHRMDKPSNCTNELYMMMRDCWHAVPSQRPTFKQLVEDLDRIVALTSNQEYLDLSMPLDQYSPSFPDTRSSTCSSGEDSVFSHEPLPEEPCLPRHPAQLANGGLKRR
UniProt P21802, whole entry, looked up: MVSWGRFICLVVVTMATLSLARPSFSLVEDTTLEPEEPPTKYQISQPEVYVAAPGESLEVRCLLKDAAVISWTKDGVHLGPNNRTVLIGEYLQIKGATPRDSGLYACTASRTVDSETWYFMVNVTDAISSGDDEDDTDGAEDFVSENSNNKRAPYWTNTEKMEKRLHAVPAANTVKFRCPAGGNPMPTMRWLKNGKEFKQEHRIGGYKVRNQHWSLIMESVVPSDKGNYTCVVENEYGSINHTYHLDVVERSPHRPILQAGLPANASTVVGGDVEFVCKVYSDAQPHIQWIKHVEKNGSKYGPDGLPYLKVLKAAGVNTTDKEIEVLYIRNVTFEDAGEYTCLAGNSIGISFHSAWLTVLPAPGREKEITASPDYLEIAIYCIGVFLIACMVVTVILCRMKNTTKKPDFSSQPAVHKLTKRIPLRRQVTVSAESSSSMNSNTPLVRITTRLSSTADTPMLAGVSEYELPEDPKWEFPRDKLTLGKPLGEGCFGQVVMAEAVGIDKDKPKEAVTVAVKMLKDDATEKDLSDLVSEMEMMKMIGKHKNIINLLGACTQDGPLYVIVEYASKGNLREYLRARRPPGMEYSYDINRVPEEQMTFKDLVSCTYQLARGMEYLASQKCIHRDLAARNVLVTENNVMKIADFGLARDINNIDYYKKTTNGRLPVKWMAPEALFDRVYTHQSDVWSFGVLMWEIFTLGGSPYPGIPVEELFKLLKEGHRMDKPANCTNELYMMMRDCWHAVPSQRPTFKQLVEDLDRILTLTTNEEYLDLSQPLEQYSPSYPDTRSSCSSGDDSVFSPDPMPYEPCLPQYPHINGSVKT
UniProt P22607, whole entry, looked up: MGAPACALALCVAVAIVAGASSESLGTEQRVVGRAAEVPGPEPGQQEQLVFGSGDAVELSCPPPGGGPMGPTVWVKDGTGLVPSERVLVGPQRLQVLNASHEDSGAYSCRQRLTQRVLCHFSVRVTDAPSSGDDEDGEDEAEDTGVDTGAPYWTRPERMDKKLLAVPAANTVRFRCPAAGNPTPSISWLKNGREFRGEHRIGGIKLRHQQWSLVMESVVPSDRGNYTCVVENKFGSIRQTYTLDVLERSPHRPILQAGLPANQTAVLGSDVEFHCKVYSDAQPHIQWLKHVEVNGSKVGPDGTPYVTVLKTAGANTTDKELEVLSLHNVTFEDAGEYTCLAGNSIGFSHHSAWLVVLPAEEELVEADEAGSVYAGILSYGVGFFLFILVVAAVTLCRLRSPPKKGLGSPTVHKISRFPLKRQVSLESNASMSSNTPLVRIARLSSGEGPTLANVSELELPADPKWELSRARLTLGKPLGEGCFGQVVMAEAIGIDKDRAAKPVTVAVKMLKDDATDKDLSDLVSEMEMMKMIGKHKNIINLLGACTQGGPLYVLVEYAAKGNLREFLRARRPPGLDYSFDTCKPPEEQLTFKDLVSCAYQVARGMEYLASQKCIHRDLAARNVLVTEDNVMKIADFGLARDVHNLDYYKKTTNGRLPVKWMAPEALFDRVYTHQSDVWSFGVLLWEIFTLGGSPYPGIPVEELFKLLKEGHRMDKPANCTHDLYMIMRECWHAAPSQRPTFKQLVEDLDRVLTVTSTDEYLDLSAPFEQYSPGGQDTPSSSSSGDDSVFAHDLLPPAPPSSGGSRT
UniProt P06241, whole entry, looked up: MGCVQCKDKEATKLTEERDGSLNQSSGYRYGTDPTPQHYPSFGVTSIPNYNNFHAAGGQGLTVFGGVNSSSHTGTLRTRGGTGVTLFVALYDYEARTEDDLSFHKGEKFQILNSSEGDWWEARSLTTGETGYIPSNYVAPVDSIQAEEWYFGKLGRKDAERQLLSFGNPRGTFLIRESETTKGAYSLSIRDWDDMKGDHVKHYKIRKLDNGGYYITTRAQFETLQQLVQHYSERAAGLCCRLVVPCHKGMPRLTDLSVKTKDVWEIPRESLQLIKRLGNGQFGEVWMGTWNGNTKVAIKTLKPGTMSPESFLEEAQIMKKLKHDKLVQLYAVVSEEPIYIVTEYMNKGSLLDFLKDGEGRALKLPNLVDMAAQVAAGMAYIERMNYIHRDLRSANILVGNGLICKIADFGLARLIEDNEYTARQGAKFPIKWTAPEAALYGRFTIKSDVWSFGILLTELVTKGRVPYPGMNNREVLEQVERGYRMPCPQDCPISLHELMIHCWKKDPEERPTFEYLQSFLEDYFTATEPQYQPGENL
UniProt P49840: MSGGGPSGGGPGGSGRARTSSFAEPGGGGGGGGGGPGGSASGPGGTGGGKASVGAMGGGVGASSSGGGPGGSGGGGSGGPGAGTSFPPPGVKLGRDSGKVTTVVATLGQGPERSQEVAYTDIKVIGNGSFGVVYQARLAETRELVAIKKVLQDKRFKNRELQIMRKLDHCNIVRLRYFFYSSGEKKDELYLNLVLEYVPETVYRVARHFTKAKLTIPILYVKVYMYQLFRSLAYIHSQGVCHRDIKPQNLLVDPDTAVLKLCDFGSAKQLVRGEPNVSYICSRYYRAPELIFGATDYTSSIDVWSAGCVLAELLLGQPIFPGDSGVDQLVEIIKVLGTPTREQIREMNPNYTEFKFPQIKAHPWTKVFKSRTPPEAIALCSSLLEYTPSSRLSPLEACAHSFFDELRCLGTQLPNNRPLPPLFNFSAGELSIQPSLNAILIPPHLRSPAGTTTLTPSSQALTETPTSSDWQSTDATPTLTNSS
UniProt P14616: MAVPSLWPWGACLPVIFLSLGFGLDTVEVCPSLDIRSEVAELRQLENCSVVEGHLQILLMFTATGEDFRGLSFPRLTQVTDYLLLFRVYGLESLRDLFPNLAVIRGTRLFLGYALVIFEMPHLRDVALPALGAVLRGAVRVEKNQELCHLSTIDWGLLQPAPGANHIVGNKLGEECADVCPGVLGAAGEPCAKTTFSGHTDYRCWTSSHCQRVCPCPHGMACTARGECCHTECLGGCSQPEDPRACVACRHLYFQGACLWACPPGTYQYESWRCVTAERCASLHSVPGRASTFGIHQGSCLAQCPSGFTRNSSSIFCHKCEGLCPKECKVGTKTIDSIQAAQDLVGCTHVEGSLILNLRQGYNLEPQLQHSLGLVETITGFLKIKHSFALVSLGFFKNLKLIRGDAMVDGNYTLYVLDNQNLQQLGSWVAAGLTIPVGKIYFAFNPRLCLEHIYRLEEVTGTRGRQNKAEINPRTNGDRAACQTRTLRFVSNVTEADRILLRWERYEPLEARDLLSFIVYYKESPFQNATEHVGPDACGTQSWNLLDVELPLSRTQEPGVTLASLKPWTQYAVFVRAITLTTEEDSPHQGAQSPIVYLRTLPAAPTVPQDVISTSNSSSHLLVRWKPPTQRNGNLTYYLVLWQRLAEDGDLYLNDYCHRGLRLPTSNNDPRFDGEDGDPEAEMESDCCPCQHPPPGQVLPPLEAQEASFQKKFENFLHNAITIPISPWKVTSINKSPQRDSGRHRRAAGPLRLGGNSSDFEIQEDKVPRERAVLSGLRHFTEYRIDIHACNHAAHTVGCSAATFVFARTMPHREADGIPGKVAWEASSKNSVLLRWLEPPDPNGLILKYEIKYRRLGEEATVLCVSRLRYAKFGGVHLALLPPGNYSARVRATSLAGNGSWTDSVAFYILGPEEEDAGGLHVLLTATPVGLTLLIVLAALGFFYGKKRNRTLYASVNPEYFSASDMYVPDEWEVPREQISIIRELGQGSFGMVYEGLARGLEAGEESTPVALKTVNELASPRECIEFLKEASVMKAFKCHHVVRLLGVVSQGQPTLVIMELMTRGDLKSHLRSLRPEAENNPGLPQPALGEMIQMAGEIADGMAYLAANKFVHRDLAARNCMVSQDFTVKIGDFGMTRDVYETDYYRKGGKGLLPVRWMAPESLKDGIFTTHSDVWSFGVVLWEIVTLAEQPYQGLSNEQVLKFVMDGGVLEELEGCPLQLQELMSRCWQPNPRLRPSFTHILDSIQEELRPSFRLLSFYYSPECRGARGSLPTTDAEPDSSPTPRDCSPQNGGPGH

Key:
Assay in all cases: kinase-Nluc reporter destabilization hit call (1 = scored as downregulated) (binary); higher = compound decreases kinase abundance
Conditions in all cases: K562; 2-18 h
ERN1 = ERN1 (UniProt O75460)
FGFR1 = FGFR1 (UniProt P11362)
FGFR2 = FGFR2 (UniProt P21802)
FGFR3 = FGFR3 (UniProt P22607)
FGR = FGR (UniProt P09769)
FLT3 = FLT3 (UniProt P36888)
FYN = FYN (UniProt P06241)
GSK3A = GSK3A (UniProt P49840)
HER2 = HER2 (UniProt P04626)
INSRR = INSRR (UniProt P14616)

Measured: kinase-Nluc reporter destabilization hit call

COc1cc(Nc2ncc(F)c(Nc3ccc4c(n3)N(COP(=O)(O)O)C(=O)C(C)(C)O4)n2)cc(OC)c1OC [Fostamatinib (disodium hexahydrate)] (10 µM)
inactive: ERN1 = 0 | FGFR1 = 0 | FGFR2 = 0 | FGFR3 = 0 | FGR 0 | FLT3 = 0 | FYN 0 | GSK3A 0 | HER2 = 0 | INSRR 0

O=C(NOCC(O)CO)c1cc(Br)c(F)c(F)c1Nc1ccc(I)cc1F (centres undefined) (2.5 µM)
inactive: ERN1 = 0 | FGFR1 = 0 | FGFR2 = 0 | FGFR3 = 0 | FGR 0 | FLT3 = 0 | FYN 0 | GSK3A 0 | HER2 = 0 | INSRR 0

O=C(NCCN1CCCC1)c1cc(-c2ccc(CN3CCOCC3)cc2)nc2ccc(F)cc12 (10 µM)
inactive: ERN1 = 0 | FGFR1 = 0 | FGFR2 = 0 | FGFR3 = 0 | FGR 0 | FLT3 = 0 | FYN 0 | GSK3A 0 | HER2 = 0 | INSRR 0

FC(F)(c1ccc2ncccc2c1)c1nnc2ccc(-c3ccncc3)nn12 (10 µM)
inactive: ERN1 = 0 | FGFR1 = 0 | FGFR2 = 0 | FGFR3 = 0 | FGR 0 | FLT3 = 0 | FYN 0 | GSK3A 0 | HER2 = 0 | INSRR 0

Cn1cc(-c2cnn3c(N)c(Br)c([C@@H]4CCCNC4)nc23)cn1 (2.5 µM)
inactive: ERN1 = 0 | FGFR1 = 0 | FGFR2 = 0 | FGFR3 = 0 | FGR 0 | FLT3 = 0 | FYN 0 | GSK3A 0 | HER2 = 0 | INSRR 0

Cn1cnc(Cn2ccc3ccc(CNCc4[nH]c5ccccc5c4[C@H]4NC(=O)c5ccc(O)cc54)cc32)c1 (10 µM)
inactive: ERN1 = 0 | FGFR1 = 0 | FGFR2 = 0 | FGFR3 = 0 | FGR 0 | FLT3 = 0 | FYN 0 | GSK3A 0 | HER2 = 0 | INSRR 0

Nc1nc2ccc(Cl)cc2c2nc(-c3ccco3)nn12 (10 µM)
inactive: ERN1 = 0 | FGFR1 = 0 | FGFR2 = 0 | FGFR3 = 0 | FGR 0 | FLT3 = 0 | FYN 0 | GSK3A 0 | HER2 = 0 | INSRR 0

CNC(=O)c1ccc(C)c(-n2c(C)cc(OCc3ccc(F)cc3F)c(Br)c2=O)c1 (10 µM)
inactive: ERN1 = 0 | FGFR1 = 0 | FGFR2 = 0 | FGFR3 = 0 | FGR 0 | FLT3 = 0 | FYN 0 | GSK3A 0 | HER2 = 0 | INSRR 0

CC1=C(C(=O)O)N2C(=O)[C@@H](NC(=O)[C@H](N)C3=CCC=CC3)[C@H]2SC1 [Cephradine] (10 µM)
inactive: ERN1 = 0 | FGFR1 = 0 | FGFR2 = 0 | FGFR3 = 0 | FGR 0 | FLT3 = 0 | FYN 0 | GSK3A 0 | HER2 = 0 | INSRR 0

3 successive records from above, for reference:
Cn1cnc(Cn2ccc3ccc(CNCc4[nH]c5ccccc5c4[C@H]4NC(=O)c5ccc(O)cc54)cc32)c1 (10 µM)
inactive: ERN1 = 0 | FGFR1 = 0 | FGFR2 = 0 | FGFR3 = 0 | FGR 0 | FLT3 = 0 | FYN 0 | GSK3A 0 | HER2 = 0 | INSRR 0

Nc1nc2ccc(Cl)cc2c2nc(-c3ccco3)nn12 (10 µM)
inactive: ERN1 = 0 | FGFR1 = 0 | FGFR2 = 0 | FGFR3 = 0 | FGR 0 | FLT3 = 0 | FYN 0 | GSK3A 0 | HER2 = 0 | INSRR 0

CNC(=O)c1ccc(C)c(-n2c(C)cc(OCc3ccc(F)cc3F)c(Br)c2=O)c1 (10 µM)
inactive: ERN1 = 0 | FGFR1 = 0 | FGFR2 = 0 | FGFR3 = 0 | FGR 0 | FLT3 = 0 | FYN 0 | GSK3A 0 | HER2 = 0 | INSRR 0

The list continues.

O=Nc1c(-c2c(O)[nH]c3ccc(F)cc23)[nH]c2ccccc12 [5'-Fluoroindirubinoxime] (10 µM)
inactive: ERN1 = 0 | FGFR3 = 0 | FGR 0 | FLT3 = 0 | FYN 0 | GSK3A 0 | HER2 = 0 | INSRR 0
active: FGFR1 = 1 | FGFR2 = 1

CCOC(=O)N1CCN(C(=O)[C@H](Cc2cccc(C(=N)N)c2)NS(=O)(=O)c2c(C(C)C)cc(C(C)C)cc2C(C)C)CC1 (10 µM)
inactive: ERN1 = 0 | FGFR1 = 0 | FGFR2 = 0 | FGFR3 = 0 | FGR 0 | FLT3 = 0 | FYN 0 | GSK3A 0 | HER2 = 0 | INSRR 0

NC(=O)c1ccc2[nH]ccc2c1 (10 µM)
inactive: ERN1 = 0 | FGFR1 = 0 | FGFR2 = 0 | FGFR3 = 0 | FGR 0 | FLT3 = 0 | FYN 0 | GSK3A 0 | HER2 = 0 | INSRR 0

CCc1c(C(=O)NNC(=O)C(O)c2cc(F)cc(F)c2)ccc(O)c1C (centres undefined) (10 µM)
inactive: ERN1 = 0 | FGFR1 = 0 | FGFR2 = 0 | FGFR3 = 0 | FGR 0 | FLT3 = 0 | FYN 0 | GSK3A 0 | HER2 = 0 | INSRR 0

C[C@@H]1CCN(C(=O)CC#N)C[C@@H]1N(C)c1ncnc2[nH]ccc12 [Tofacitinib] (10 µM)
inactive: ERN1 = 0 | FGFR1 = 0 | FGFR2 = 0 | FGFR3 = 0 | FGR 0 | FLT3 = 0 | FYN 0 | GSK3A 0 | HER2 = 0 | INSRR 0

O=C(N/N=C/c1coc2ccccc2c1=O)c1cccnc1 (10 µM)
inactive: ERN1 = 0 | FGFR1 = 0 | FGFR2 = 0 | FGFR3 = 0 | FGR 0 | FLT3 = 0 | FYN 0 | GSK3A 0 | HER2 = 0 | INSRR 0

C=C(CC[C@@H](C(=O)O)[C@H]1[C@H](O)C[C@@]2(C)C3=C(CC[C@]12C)[C@@]1(C)CC[C@H](OC(C)=O)C(C)(C)[C@@H]1CC3)C(C)C [Pachymic acid] (10 µM)
inactive: ERN1 = 0 | FGFR1 = 0 | FGFR2 = 0 | FGFR3 = 0 | FGR 0 | FLT3 = 0 | FYN 0 | GSK3A 0 | HER2 = 0 | INSRR 0

Cc1c(-c2c(F)cc(C(N)=O)c3[nH]c4c(c23)CC[C@H](C(C)(C)O)C4)cccc1-n1c(=O)c2cccc(F)c2n(C)c1=O (2.5 µM)
inactive: ERN1 = 0 | FGFR1 = 0 | FGFR2 = 0 | FGFR3 = 0 | FGR 0 | FLT3 = 0 | FYN 0 | GSK3A 0 | HER2 = 0 | INSRR 0

CC1CCc2c(cc(Br)c(F)c2Br)N1C=O (centres undefined) (10 µM)
inactive: ERN1 = 0 | FGFR1 = 0 | FGFR2 = 0 | FGFR3 = 0 | FGR 0 | FLT3 = 0 | FYN 0 | GSK3A 0 | HER2 = 0 | INSRR 0

COc1cc(Nc2ncc(F)c(Nc3ccc4c(n3)N(COP(=O)(O)O)C(=O)C(C)(C)O4)n2)cc(OC)c1OC [Fostamatinib Disodium] (10 µM)
inactive: ERN1 = 0 | FGFR1 = 0 | FGFR2 = 0 | FGFR3 = 0 | FGR 0 | FLT3 = 0 | FYN 0 | GSK3A 0 | HER2 = 0 | INSRR 0

CC(=O)NC1CC(n2cnc(NC(=O)Cc3ccc4ccccc4c3)c2)C1 (centres undefined) (10 µM)
inactive: ERN1 = 0 | FGFR1 = 0 | FGFR2 = 0 | FGFR3 = 0 | FGR 0 | FLT3 = 0 | FYN 0 | GSK3A 0 | HER2 = 0 | INSRR 0

CCN1CCN(Cc2ccc(Nc3ncc(F)c(-c4cc(F)c5nc(C)n(C(C)C)c5c4)n3)nc2)CC1 [Abemaciclib] (2 µM)
inactive: ERN1 = 0 | FGFR1 = 0 | FGFR2 = 0 | FGFR3 = 0 | FGR 0 | FLT3 = 0 | FYN 0 | GSK3A 0 | HER2 = 0 | INSRR 0

CN(C)CCSSCCNC(=O)C1CCN(C(=O)CSc2ccc(Cl)cc2)CC1 (10 µM)
inactive: ERN1 = 0 | FGFR1 = 0 | FGFR2 = 0 | FGFR3 = 0 | FGR 0 | FLT3 = 0 | FYN 0 | GSK3A 0 | HER2 = 0 | INSRR 0

COc1cc(/C=C/C(=O)NCC(O)c2ccc(O)cc2)ccc1O (centres undefined) [N-Feruloyloctopamine] (2.5 µM)
inactive: ERN1 = 0 | FGFR1 = 0 | FGFR2 = 0 | FGFR3 = 0 | FGR 0 | FLT3 = 0 | FYN 0 | GSK3A 0 | HER2 = 0 | INSRR 0

Cn1nccc1Nc1nccc(-c2ccn([C@H](CO)c3ccc(Cl)c(F)c3)c(=O)c2)n1 [Ravoxertinib hydrochloride] (10 µM)
inactive: ERN1 = 0 | FGFR1 = 0 | FGFR2 = 0 | FGFR3 = 0 | FGR 0 | FLT3 = 0 | FYN 0 | GSK3A 0 | HER2 = 0 | INSRR 0

CN1C(=O)N[C@H](Cc2c[nH]c3c(Cl)cccc23)C1=O [Necrostatin 2] (10 µM)
inactive: ERN1 = 0 | FGFR1 = 0 | FGFR2 = 0 | FGFR3 = 0 | FGR 0 | FLT3 = 0 | FYN 0 | GSK3A 0 | HER2 = 0 | INSRR 0

Cn1nccc1Nc1nccc(-c2ccn([C@H](CO)c3ccc(Cl)c(F)c3)c(=O)c2)n1 [Ravoxertinib] (10 µM)
inactive: ERN1 = 0 | FGFR1 = 0 | FGFR2 = 0 | FGFR3 = 0 | FGR 0 | FLT3 = 0 | FYN 0 | GSK3A 0 | HER2 = 0 | INSRR 0

O=C(CSC1=NCCN1)NC1CCCCCC1 [ICCB-19 (hydrochloride)] (2.5 µM)
inactive: ERN1 = 0 | FGFR1 = 0 | FGFR2 = 0 | FGFR3 = 0 | FGR 0 | FLT3 = 0 | FYN 0 | GSK3A 0 | HER2 = 0 | INSRR 0

C=CC(=O)Nc1cccc(Nc2nc(Nc3ccc(NC4CN(CCF)C4)cc3OC)ncc2C(F)(F)F)c1 (2.5 µM)
inactive: ERN1 = 0 | FGFR1 = 0 | FGFR2 = 0 | FGFR3 = 0 | FGR 0 | FLT3 = 0 | FYN 0 | GSK3A 0 | HER2 = 0 | INSRR 0

O=S(=O)(NCCCN1c2ccccc2CCc2ccc(Cl)cc21)c1ccc(OC(F)(F)F)cc1 (2.5 µM)
inactive: ERN1 = 0 | FGFR1 = 0 | FGFR2 = 0 | FGFR3 = 0 | FGR 0 | FLT3 = 0 | FYN 0 | GSK3A 0 | HER2 = 0 | INSRR 0

COc1cc2c(N3CCN(C(=O)Nc4ccc(OC(C)C)cc4)CC3)ncnc2cc1OCCCN1CCCCC1 [Tandutinib (hydrochloride)] (10 µM)
inactive: ERN1 = 0 | FGFR1 = 0 | FGFR2 = 0 | FGFR3 = 0 | FGR 0 | FYN 0 | GSK3A 0 | HER2 = 0 | INSRR 0

Cc1cc(O)c2c(c1)C(=O)c1cc(O)cc(O)c1C2=O [Emodin] (10 µM)
inactive: ERN1 = 0 | FGFR1 = 0 | FGFR2 = 0 | FGFR3 = 0 | FGR 0 | FLT3 = 0 | FYN 0 | GSK3A 0 | HER2 = 0 | INSRR 0

Nc1nc(F)nc2c1ncn2[C@@H]1O[C@H](CO)[C@@H](O)[C@@H]1O [Fludarabine] (10 µM)
inactive: ERN1 = 0 | FGFR1 = 0 | FGFR2 = 0 | FGFR3 = 0 | FGR 0 | FLT3 = 0 | FYN 0 | GSK3A 0 | HER2 = 0 | INSRR 0

C[C@@H]1CC[C@@H](Nc2nc(NC(C)(C)C)ncc2C(N)=O)C[C@H]1O (10 µM)
inactive: ERN1 = 0 | FGFR1 = 0 | FGFR2 = 0 | FGFR3 = 0 | FGR 0 | FLT3 = 0 | FYN 0 | GSK3A 0 | HER2 = 0 | INSRR 0

Nc1ncnc2c1c(-c1cccc(OCc3ccccc3)c1)cn2C1CC(CN2CCC2)C1 (centres undefined) (2.5 µM)
inactive: ERN1 = 0 | FGFR1 = 0 | FGFR2 = 0 | FGFR3 = 0 | FGR 0 | FLT3 = 0 | FYN 0 | GSK3A 0 | HER2 = 0 | INSRR 0

O=c1[nH]c(=O)n([C@@H]2O[C@H](CO)[C@@H](O)[C@@H]2O)cc1/C=C/Br [Sorivudine] (10 µM)
inactive: ERN1 = 0 | FGFR1 = 0 | FGFR2 = 0 | FGFR3 = 0 | FGR 0 | FLT3 = 0 | FYN 0 | GSK3A 0 | HER2 = 0 | INSRR 0
